Results taken from patent US20210221885A1.
These are yes or no findings as the source states them, for the method shown. Some binding calls cover weakened binding; strength is not graded here.

By UniProt entry, the sequences of proteins in these tests, tags left out. Residues count along the entry.
UniProt Q8TDQ0, residues 22-200: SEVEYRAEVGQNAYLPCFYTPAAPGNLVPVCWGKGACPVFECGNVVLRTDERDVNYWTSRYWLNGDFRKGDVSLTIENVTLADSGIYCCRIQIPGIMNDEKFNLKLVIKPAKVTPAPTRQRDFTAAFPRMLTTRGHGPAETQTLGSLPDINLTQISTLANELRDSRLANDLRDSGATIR

Biological target: Human TIM-3 protein (Acrobiosystems, Cat#TM3-H5229) (human) (UniProt Q8TDQ0)
Assay: phage ELISA, human TIM-3 coated at 0.1 µg/mL, anti-M13 detection

Row | Binder | binding
1 | clone TIM3-6, scFv displayed on phage (scFv) scFv: QVQLVQSGAEVKKPGSSVKVSCKASGGTFSSYTISWVRQAPGQGLEWMGRIIPILGTANYAQKFQGRVTITADESTSTAYMELSSLRSEDTAVYYCASASHTIWGKGTLVTVSSGGGGSGGGGSGGGGSQAVVTQEPSLTVSPGGTVTLTCASSTGAVTSGYSPNWFQQRPGQAPRALIYTTSNRHSWTPARFSGSLLGGKAALTLSGVQPEDEADYYCLLYYGGAWVFGGGTKLTVLG | binds
2 | clone TIM3-4G7, scFv displayed on phage (scFv) scFv: EVQLVETGGGLVQPGGSLRLSCAASGFTFSSYAMSWVRQAPGKGLEWVSGISGSGGSTYYADSVKGRFTTSRDNSENTLYLQMNSLRAEDTAVYYCAGSYYDDAFDIWGQGTLVTVSSGGGGSGGGGSGGGGSETTLTQSPATLSLSPGDTATLSCRASQSVTKDLVAWYQQRPGQAPRLLLYGASSRATGIPDRFSGSGSGTDFTLTISRLEPEDFAVYYCQQYGRSPLTFGGGTKVEIK | binds
3 | clone TIM3-11, scFv displayed on phage (scFv) scFv: QVQLQQSGPGLVKPSQTLSLTCAISGDSVSSNSAAWNWIRQSPSRGLEWLGRTYYRSKWYNDYAVSVKSRITINPDTSKNQFSLQLNSVTPEDTAVYYCARDQAAGFPQPYIYGMDVWGKGTMVTVSSGGGGSGGGGSGGGGSLPVLTQPPSVSKGLRQTATLTCTGNSNNVGNQGAAWLQQHQGHPPKLLTYRTNNRPSGISERFSASRSGNTASLTITGLQPEDEADYYCSGWDSSLNEGVFGGGTKLTVLG | binds
